Test results from paper doi:10.1101/746693 (bioRxiv, 2019).
Where two headings read alike, the source gives them in different places. No constants are given. Whether binding was seen depends on the method and setting. Binding seen in cells or lysates may run through a third protein. Some binding calls cover weakened binding; strength is not graded here. For some of these results: Tags and fused reporters may be left off the sequences shown.

By UniProt entry, the sequences of proteins in these tests, tags left out. Residues count along the entry.
UniProt P55085, residues 37-397: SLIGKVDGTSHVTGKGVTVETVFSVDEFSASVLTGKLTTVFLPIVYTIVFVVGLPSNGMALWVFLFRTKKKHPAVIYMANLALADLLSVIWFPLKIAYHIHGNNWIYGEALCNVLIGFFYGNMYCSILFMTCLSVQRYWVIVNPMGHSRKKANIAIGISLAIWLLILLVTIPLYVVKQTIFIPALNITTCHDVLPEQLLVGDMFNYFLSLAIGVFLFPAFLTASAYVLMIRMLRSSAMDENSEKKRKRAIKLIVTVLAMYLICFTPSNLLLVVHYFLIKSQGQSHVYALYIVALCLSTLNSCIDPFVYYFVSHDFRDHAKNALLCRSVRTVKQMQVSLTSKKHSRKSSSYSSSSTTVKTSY

Experiments:
Assay in all cases: FRET or BRET
PAR4^H229A-YFP (human) [1] = molecular target: T1, PAR4^H229A-YFP (human) (UniProt Q96RI0)
T1 sequence: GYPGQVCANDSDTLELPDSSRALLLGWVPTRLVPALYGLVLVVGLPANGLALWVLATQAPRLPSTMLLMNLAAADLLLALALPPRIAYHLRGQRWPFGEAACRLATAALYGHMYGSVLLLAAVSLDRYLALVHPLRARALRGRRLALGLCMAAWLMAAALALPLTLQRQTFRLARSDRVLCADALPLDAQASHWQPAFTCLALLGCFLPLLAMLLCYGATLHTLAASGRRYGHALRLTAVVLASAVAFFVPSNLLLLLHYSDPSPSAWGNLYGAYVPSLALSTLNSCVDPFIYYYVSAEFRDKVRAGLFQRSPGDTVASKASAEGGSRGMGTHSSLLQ

PAR4^Q242A-YFP (human) [2] = molecular target: T2, PAR4^Q242A-YFP (human) (UniProt Q96RI0)
T2 sequence: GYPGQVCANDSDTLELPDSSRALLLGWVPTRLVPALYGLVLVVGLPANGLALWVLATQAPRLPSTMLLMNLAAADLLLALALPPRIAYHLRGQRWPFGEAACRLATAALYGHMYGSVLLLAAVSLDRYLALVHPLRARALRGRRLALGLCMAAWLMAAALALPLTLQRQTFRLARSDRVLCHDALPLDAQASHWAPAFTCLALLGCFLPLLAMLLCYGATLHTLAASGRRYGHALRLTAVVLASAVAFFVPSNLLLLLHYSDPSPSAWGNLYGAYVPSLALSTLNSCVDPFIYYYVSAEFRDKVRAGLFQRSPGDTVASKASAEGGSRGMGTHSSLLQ

PAR4^H229A-YFP (human) [3] = molecular target: T1, PAR4^H229A-YFP (human); remark: listed apart in the source
PAR2-YFP = PAR2-YFP (UniProt P55085)
PAR4^Q242A-YFP (human) [4] = molecular target: T2, PAR4^Q242A-YFP (human); remark: listed apart in the source
[5] = molecular target: T3, Proteinase Activated Receptor-4 (PAR4)-YFP, wild type (human) (UniProt Q96RI0)
T3 sequence: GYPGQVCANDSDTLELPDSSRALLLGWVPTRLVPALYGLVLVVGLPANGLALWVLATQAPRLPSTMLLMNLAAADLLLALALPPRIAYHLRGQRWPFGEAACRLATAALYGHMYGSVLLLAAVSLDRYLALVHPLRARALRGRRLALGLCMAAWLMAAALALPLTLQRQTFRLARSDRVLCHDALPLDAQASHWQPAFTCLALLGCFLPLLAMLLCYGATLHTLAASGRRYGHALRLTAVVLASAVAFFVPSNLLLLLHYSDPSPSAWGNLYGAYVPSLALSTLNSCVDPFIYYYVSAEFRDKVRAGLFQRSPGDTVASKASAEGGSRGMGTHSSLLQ

Measured: binding

β-arrestin-2-renilla luciferase (from UniProt P32121 1-409)
not listed: [5]
binds: all other assays above

B1: β-arrestin-1-renilla luciferase (natural protein, UniProt P49407 1-418, looked up)
chain: MGDKGTRVFKKASPNGKLTVYLGKRDFVDHIDLVDPVDGVVLVDPEYLKERRVYVTLTCAFRYGREDLDVLGLTFRKDLFVANVQSFPPAPEDKKPLTRLQERLIKKLGEHAYPFTFEIPPNLPCSVTLQPGPEDTGKACGVDYEVKAFCAENLEEKIHKRNSVRLVIRKVQYAPERPGPQPTAETTRQFLMSDKPLHLEASLDKEIYYHGEPISVNVHVTNNTNKTVKKIKISVRQYADICLFNTAQYKCPVAMEEADDTVAPSSTFCKVYTLTPFLANNREKRGLALDGKLKHEDTNLASSTLLREGANREILGIIVSYKVKVKLVVSRGGLLGDLASSDVAVELPFTLMHPKPKEEPPHREVPENETPVDTNLIELDTNDDDIVFEDFARQRLKGMKDDKEEEEDGTGSPQLNNR
not listed: PAR2-YFP
binds: all other assays above
